In PMC5400277:
No constants are given. Whether binding was seen depends on the method and setting. Sequences can lack the tags named with a protein.

T1: SPATULA (SPT), yeast two-hybrid fusion (Arabidopsis) (UniProt Q9FUA4)
T1 sequence: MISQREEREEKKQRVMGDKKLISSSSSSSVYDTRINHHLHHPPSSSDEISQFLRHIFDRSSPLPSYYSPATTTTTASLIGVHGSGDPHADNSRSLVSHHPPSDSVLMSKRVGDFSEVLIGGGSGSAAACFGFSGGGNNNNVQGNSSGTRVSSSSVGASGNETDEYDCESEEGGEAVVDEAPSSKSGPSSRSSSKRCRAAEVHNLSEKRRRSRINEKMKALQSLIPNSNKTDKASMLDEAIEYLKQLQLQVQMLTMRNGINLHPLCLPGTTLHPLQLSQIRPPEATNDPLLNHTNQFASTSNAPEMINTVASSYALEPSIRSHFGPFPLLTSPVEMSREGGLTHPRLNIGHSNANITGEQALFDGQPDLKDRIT

B1: ARABIDOPSIS RESPONSE REGULATOR 1 (ARR1), yeast two-hybrid fusion (protein, UniProt Q940D0 1-690)
chain: MMNPSHGRGLGSAGGSSSGRNQGGGGETVVEMFPSGLRVLVVDDDPTCLMILERMLRTCLYEVTKCNRAEMALSLLRKNKHGFDIVISDVHMPDMDGFKLLEHVGLEMDLPVIMMSADDSKSVVLKGVTHGAVDYLIKPVRMEALKNIWQHVVRKRRSEWSVPEHSGSIEETGERQQQQHRGGGGGAAVSGGEDAVDDNSSSVNEGNNWRSSSRKRKDEEGEEQGDDKDEDASNLKKPRVVWSVELHQQFVAAVNQLGVEKAVPKKILELMNVPGLTRENVASHLQKYRIYLRRLGGVSQHQGNLNNSFMTGQDASFGPLSTLNGFDLQALAVTGQLPAQSLAQLQAAGLGRPAMVSKSGLPVSSIVDERSIFSFDNTKTRFGEGLGHHGQQPQQQPQMNLLHGVPTGLQQQLPMGNRMSIQQQIAAVRAGNSVQNNGMLMPLAGQQSLPRGPPPMLTSSQSSIRQPMLSNRISERSGFSGRNNIPESSRVLPTSYTNLTTQHSSSSMPYNNFQPELPVNSFPLASAPGISVPVRKATSYQEEVNSSEAGFTTPSYDMFTTRQNDWDLRNIGIAFDSHQDSESAAFSASEAYSSSSMSRHNTTVAATEHGRNHQQPPSGMVQHHQVYADGNGGSVRVKSERVATDTATMAFHEQYSNQEDLMSALLKQEGIAPVDGEFDFDAYSIDNIPV
B2: ARR3, yeast two-hybrid fusion (protein, UniProt Q9ZWS9 1-231)
chain: MAKDGGVSCLRRSEMIGIGIGELESPPLDSDQVHVLAVDDSLVDRIVIERLLRITSCKVTAVDSGWRALEFLGLDDDKAAVEFDRLKVDLIITDYCMPGMTGYELLKKIKESTSFKEVPVVIMSSENVMTRIDRCLEEGAEDFLLKPVKLADVKRLRSYLTRDVKVAAEGNKRKLTTPPPPPPLSATSSMESSDSTVESPLSMVDDEDSLTMSPESATSLVDSPMRSPGLA
B3: ARR4, yeast two-hybrid fusion (protein, UniProt O82798 1-259)
chain: MARDGGVSCLRRSEMMSVGGIGGIESAPLDLDEVHVLAVDDSLVDRIVIERLLRITSCKVTAVDSGWRALEFLGLDNEKASAEFDRLKVDLIITDYCMPGMTGYELLKKIKESSNFREVPVVIMSSENVLTRIDRCLEEGAQDFLLKPVKLADVKRLRSHLTKDVKLSNGNKRKLPEDSSSVNSSLPPPSPPLTISPESSPPLTVSTESSDSSPPLSPVEIFSTSPLSSPIDDEDDDVLTSSSEESPIRRQKMRSPGLD
B4: ARR5, yeast two-hybrid fusion (protein, UniProt Q9SB04 1-184)
chain: MAEVLRPEMLDISNDTSSLASPKLLHVLAVDDSMVDRKFIERLLRVSSCKVTVVDSATRALQYLGLDGENNSSVGFEDLKINLIMTDYSMPGMTGYELLKKIKESSAFREIPVVIMSSENILPRIDRCLEEGAEDFLLKPVKLADVKRLRDSLMKAEERAFKNIMHKRELEANDIYSQLKRAKI
B5: ARR6, yeast two-hybrid fusion (protein, UniProt Q9ZWS6 1-186)
chain: MAEVMLPRKMEILNHSSKFGSPDPLHVLAVDDSHVDRKFIERLLRVSSCKVTVVDSATRALQYLGLDVEEKSVGFEDLKVNLIMTDYSMPGMTGYELLKKIKESSAFREVPVVIMSSENILPRIDRCLEEGAEDFLLKPVKLSDVKRLRDSLMKVEDLSFTKSIQKRELETENVYPVHSQLKRAKI
B6: ARR8, yeast two-hybrid fusion (protein, UniProt O80365 1-225)
chain: MVMETESKFHVLAVDDSLFDRKMIERLLQKSSCQVTTVDSGSKALEFLGLRVDDNDPNALSTSPQIHQEVEINLIITDYCMPGMTGYDLLKKVKESAAFRSIPVVIMSSENVPARISRCLEEGAEEFFLKPVKLADLTKLKPHMMKTKLKKESEKPVAIEEIVVSKPEIEEEEEESSVIEILPLHQEIESEQLEPMLSSNKRKAMEEVVSTDRSRPKYNDITTSV
B7: ARR9, yeast two-hybrid fusion (protein, UniProt O80366 1-234)
chain: MGMAAESQFHVLAVDDSLFDRKLIERLLQKSSCQVTTVDSGSKALEFLGLRQSTDSNDPNAFSKAPVNHQVVEVNLIITDYCMPGMTGYDLLKKVKESSAFRDIPVVIMSSENVPARISRCLEEGAEEFFLKPVRLADLNKLKPHMMKTKLKNQKLEEIETTSKVENGVPTAVADPEIKDSTNIEIEILPLQQDLLLVQQEEQTLSINNKRKSVEEGISTDRARPRFDGIATAV
B8: ARR15, yeast two-hybrid fusion (protein, UniProt Q7G8V2 1-206)
chain: MALRDLSSSLSSSSSPELHVLAVDDSFVDRKVIERLLKISACKVTTVESGTRALQYLGLDGDNGSSGLKDLKVNLIVTDYSMPGLTGYELLKKIKESSALREIPVVIMSSENIQPRIEQCMIEGAEEFLLKPVKLADVKRLKELIMRGGEAEEGKTKKLSPKRILQNDIDSSPSSSSTSSSSSSHDVSSLDDDTPSSKRIKLESRG
B9: ARR16, yeast two-hybrid fusion (protein, UniProt Q9SHC2 1-164)
chain: MNSSGGSCSSLMDVVAYDHHLHHGHDEELHVLAVDDNLIDRKLVERLLKISCCKVTTAENALRALEYLGLGDQNQHIDALTCNVMKVSLIITDYCMPGMTGFELLKKVKESSNLREVPVVIMSSENIPTRINKCLASGAQMFMQKPLKLADVEKLKCHLMNCRS
B10: ARR2, yeast two-hybrid fusion (protein, UniProt Q9ZWJ9 1-664)
chain: MVNPGHGRGPDSGTAAGGSNSDPFPANLRVLVVDDDPTCLMILERMLMTCLYRVTKCNRAESALSLLRKNKNGFDIVISDVHMPDMDGFKLLEHVGLEMDLPVIMMSADDSKSVVLKGVTHGAVDYLIKPVRIEALKNIWQHVVRKKRNEWNVSEHSGGSIEDTGGDRDRQQQHREDADNNSSSVNEGNGRSSRKRKEEEVDDQGDDKEDSSSLKKPRVVWSVELHQQFVAAVNQLGVDKAVPKKILEMMNVPGLTRENVASHLQKYRIYLRRLGGVSQHQGNMNHSFMTGQDQSFGPLSSLNGFDLQSLAVTGQLPPQSLAQLQAAGLGRPTLAKPGMSVSPLVDQRSIFNFENPKIRFGDGHGQTMNNGNLLHGVPTGSHMRLRPGQNVQSSGMMLPVADQLPRGGPSMLPSLGQQPILSSSVSRRSDLTGALAVRNSIPETNSRVLPTTHSVFNNFPADLPRSSFPLASAPGISVPVSVSYQEEVNSSDAKGGSSAATAGFGNPSYDIFNDFPQHQQHNKNISNKLNDWDLRNMGLVFSSNQDAATATATAAFSTSEAYSSSSTQRKRRETDATVVGEHGQNLQSPSRNLYHLNHVFMDGGSVRVKSERVAETVTCPPANTLFHEQYNQEDLMSAFLKQEGIPSVDNEFEFDGYSIDNIQV
B11: ARR10, yeast two-hybrid fusion (protein, UniProt O49397 1-552)
chain: MTMEQEIEVLDQFPVGMRVLAVDDDQTCLRILQTLLQRCQYHVTTTNQAQTALELLRENKNKFDLVISDVDMPDMDGFKLLELVGLEMDLPVIMLSAHSDPKYVMKGVKHGACDYLLKPVRIEELKNIWQHVVRKSKLKKNKSNVSNGSGNCDKANRKRKEQYEEEEEEERGNDNDDPTAQKKPRVLWTHELHNKFLAAVDHLGVERAVPKKILDLMNVDKLTRENVASHLQKFRVALKKVSDDAIQQANRAAIDSHFMQMNSQKGLGGFYHHHRGIPVGSGQFHGGTTMMRHYSSNRNLGRLNSLGAGMFQPVSSSFPRNHNDGGNILQGLPLEELQINNNINRAFPSFTSQQNSPMVAPSNLLLLEGNPQSSSLPSNPGFSPHFEISKRLEHWSNAALSTNIPQSDVHSKPDTLEWNAFCDSASPLVNPNLDTNPASLCRNTGFGSTNAAQTDFFYPLQMNQQPANNSGPVTEAQLFRSSNPNEGLLMGQQKLQSGLMASDAGSLDDIVNSLMTQEQSQSDFSEGDWDLDGLAHSEHAYEKLHFPFSLSA
B12: ARR11, yeast two-hybrid fusion (protein, UniProt Q9FXD6 1-521)
chain: MEKSGFSPVGLRVLVVDDDPTWLKILEKMLKKCSYEVTTCGLAREALRLLRERKDGYDIVISDVNMPDMDGFKLLEHVGLELDLPVIMMSVDGETSRVMKGVQHGACDYLLKPIRMKELKIIWQHVLRKKLQEVRDIEGCGYEGGADWITRYDEAHFLGGGEDVSFGKKRKDFDFEKKLLQDESDPSSSSSKKARVVWSFELHHKFVNAVNQIGCDHKAGPKKILDLMNVPWLTRENVASHLQKYRLYLSRLEKGKELKCYSGGVKNADSSPKDVEVNSGYQSPGRSSYVFSGGNSLIQKATEIDPKPLASASLSDLNTDVIMPPKTKKTRIGFDPPISSSAFDSLLPWNDVPEVLESKPVLYENSFLQQQPLPSQSSYVANSAPSLMEEEMKPPYETPAGGSSVNADEFLMPQDKIPTVTLQDLDPSAMKLQEFNTEAILRSLNWELPESHHSVSLDTDLDLTWLQGERFLANTGLQFQDYSSSPSLLSELPAHLNWYGNERLPDPDEYSFMVDQGLFIS
B13: ARR12, yeast two-hybrid fusion (protein, UniProt P62598 1-596)
chain: MTVEQNLEALDQFPVGMRVLAVDDDQTCLKILESLLRHCQYHVTTTNQAQKALELLRENKNKFDLVISDVDMPDMDGFKLLELVGLEMDLPVIMLSAHSDPKYVMKGVTHGACDYLLKPVRIEELKNIWQHVVRSRFDKNRGSNNNGDKRDGSGNEGVGNSDQNNGKGNRKRKDQYNEDEDEDRDDNDDSCAQKKQRVVWTVELHKKFVAAVNQLGYEKAMPKKILDLMNVEKLTRENVASHLQKFRLYLKRISGVANQQAIMANSELHFMQMNGLDGFHHRPIPVGSGQYHGGAPAMRSFPPNGILGRLNTPSGIGVRSLSSPPAGMFLQNQTDIGKFHHVSSLPLNHSDGGNILQGLPMPLEFDQLQTNNNKSRNMNSNKSIAGTSMAFPSFSTQQNSLISAPNNNVVVLEGHPQATPPGFPGHQINKRLEHWSNAVSSSTHPPPPAHNSNSINHQFDVSPLPHSRPDPLEWNNVSSSYSIPFCDSANTLSSPALDTTNPRAFCRNTDFDSNTNVQPGVFYGPSTDAMALLSSSNPKEGFVVGQQKLQSGGFMVADAGSLDDIVNSTMKQEQSQGDLSGGDLGYGGFSSLRTCI
B14: ARR14, yeast two-hybrid fusion (protein, UniProt Q8L9Y3 1-382)
chain: MPINDQFPSGLRILVVDDDTSCLFILEKMLLRLMYQVTICSQADVALTILRERKDSFDLVLSDVHMPGMNGYNLLQQVGLLEMDLPVIMMSVDGRTTTVMTGINHGACDYLIKPIRPEELKNIWQHVVRRKCVMKKELRSSQALEDNKNSGSLETVVVSVSECSEESLMKCRNKKKKKKRSVDRDDNEDDLLLDPGNSKKSRVVWSIELHQQFVNAVNKLGIDKAVPKRILELMNVPGLSRENVASHLQKFRLYLKRLSGEASQSNDSESTKRYENIQALVSSGQLHPQTLAALFGQPIDNHHSASFGVWIPNDNLGRSQNEHFSVDVSSASNRPVSVAVHGLSSSANFRQRGDVNNNRIRQGYGSNVNEESWILERSSRQR

Molecular target: T1, SPATULA (SPT), yeast two-hybrid fusion (Arabidopsis)
Test: two-hybrid; DNA-binding domain fusion (SPT in the LexA vector pBTM116c-D9) against Gal4 activation domain fusions (ARRs in pACT2); yeast strain L40ccaU; SD-Gluc medium lacking Leu, Trp, His with 3 mM 3-amino-1,2,4-triazole; scored after 5 days at 25°C

binding	Binder
no binding	B1
no binding	B2
no binding	B3
no binding	B4
no binding	B5
no binding	B6
no binding	B7
no binding	B8
no binding	B9
no binding	B10
no binding	B11
no binding	B12
no binding	B13
no binding	B14
